# Measurements taken from US7388071B2, “Composition and method for inducing and enhancing a telomerase reverse transcriptase-reactive cytotoxic T lymphocyte response” (The Regents of the University of California, priority 2000, dated 2008).
# Part of at least one peptide drawing is inferred or uncertain, most often the ends. Marks after values point to notes of the source that are not given here. Peptide text beside a SMILES is read from it.
# Columns and labels:
# Format in all cases: cell-based, human
# [1] = tested on: H146 lung tumor cell line; test: Prostate cancer patient's CTL lines, 51Cr-release on H146; settings: HLA-A2 Neg., E:T 50:1, IFN-γ 100 IU/ml 48 hours
# [2] = tested on: T2 cells pulsed with hTRT peptide; test: In vitro immunization of prostate cancer patients' PBMC, 51Cr-release assay on peptide-pulsed T2
# [3] = tested on: T2 cells pulsed with hTRT peptide; test: In vitro immunization of normal blood donor PBMC, 51Cr-release assay
# [4] = tested on: HCT011 colon tumor cell line; test: Prostate cancer patient's CTL lines, 51Cr-release on HCT011; settings: HLA-A2 Neg., E:T 50:1, IFN-γ 100 IU/ml 48 hours
# [5] = tested on: MCF7 breast tumor cell line; test: Prostate cancer patient's CTL lines, 51Cr-release on MCF7; settings: HLA-A2 Pos., E:T 50:1, IFN-γ 100 IU/ml 48 hours
# [6] = tested on: SKBR3 breast tumor cell line; test: Prostate cancer patient's CTL lines, 51Cr-release on SKBR3; settings: HLA-A2 Neg., E:T 50:1, IFN-γ 100 IU/ml 48 hours
# peptide-pulsed T2 cells = test: Induction of CTL in vitro in patients with melanoma
# H69 lung cell line = test: Prostate cancer patient's CTL lines, 51Cr-release on H69; settings: HLA-A2 Pos., E:T 50:1, IFN-γ 100 IU/ml 48 hours
# T2 cells = test: Prostate cancer patient's CTL lines, 51Cr-release on non-pulsed T2; settings: E:T 50:1
# melanoma cell line 624 = test: Prostate cancer patient's CTL lines, 51Cr-release on melanoma 624; settings: HLA-A2 Pos., E:T 50:1, IFN-γ 100 IU/ml 48 hours
# SW480 colon cell line = test: Prostate cancer patient's CTL lines, 51Cr-release on SW480; settings: HLA-A2 Pos., E:T 50:1, IFN-γ 100 IU/ml 48 hours
# melanoma cell line 1351 = test: Prostate cancer patient's CTL lines, 51Cr-release on melanoma 1351; settings: HLA-A2 Neg., E:T 50:1, IFN-γ 100 IU/ml 48 hours
compound,measurement,setting,value
CC[C@H](C)[C@H](N)C(=O)N[C@@H](CC(C)C)C(=O)N[C@@H](C)C(=O)N[C@@H](CCCCN)C(=O)N[C@@H](Cc1ccccc1)C(=O)N[C@@H](CC(C)C)C(=O)N[C@@H](Cc1c[nH]cn1)C(=O)N[C@@H](Cc1c[nH]c2ccccc12)C(=O)N[C@@H](CC(C)C)C(=O)O [p540] (H-ILAKFLHWL-OH),"Percent Lysis, H146",[1],11%
same,"Percent Lysis, T2 + peptide","[2]; patient's CTL lines 380.540.1 / 380.865.1, E:T 50:1",59%
same,"maximal lysis of peptide-pulsed T2 cells, range over individuals","[2]; prostate cancer patients, three responders",27-49%
same,number of donors generating specific CTL,"[3]; 10 HLA-A2+ normal blood donors, from third round of peptide stimulation",nine
same,"maximal lysis of peptide-pulsed T2 cells, range over individuals",[3]; normal blood donors,28-68%
same,"Percent Lysis, HCT011",[4],9%
same,"Percent Lysis, MCF7",[5],39%
same,"Percent Lysis, SKBR3",[6],7%
same,melanoma patients with induced CTL response,peptide-pulsed T2 cells; 4 HLA-A2+ patients,3 out of 4
same,"CTL to peptide, patient 00","peptide-pulsed T2 cells; melanoma patient 00, concomitantly immunized with DC, high background",<5%
same,"CTL to peptide, patient 22-1",peptide-pulsed T2 cells; melanoma patient 22-1,40%
same,"CTL to peptide, patient 28-7",peptide-pulsed T2 cells; melanoma patient 28-7,50%
same,"CTL to peptide, patient 66-5",peptide-pulsed T2 cells; melanoma patient 66-5,49%*
same,Measurable NK activity,peptide-pulsed T2 cells; melanoma patient 66-5,(17%)
same,"Percent Lysis, H69",H69 lung cell line,41%
same,"Percent Lysis, T2",T2 cells,11%
same,"Percent Lysis, 624",melanoma cell line 624,48%
same,"Percent Lysis, SW480",SW480 colon cell line,12%
same,"Percent Lysis, 1351",melanoma cell line 1351,12%
